Among the data in PubChem BioAssay AID2685 (National Center for Advancing Translational Sciences (NCATS), 2010) are cell number change and AC50 values, retold here.

The list shows a part of the results. The main result of the screen is listed elsewhere. These columns were measured beside it and carry no call. Compounds called inactive in the main read-out are mostly missing here. Potencies come from curve fits of mixed quality, noted in brackets.

A short description of the assay: qHTS Assay for Lipid Storage Modulators in Drosophila S3 Cells.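 On cell number change: cells counted by Cell Tracker Red CMTPX staining in the red channel.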 The note with it: BODIPY lipid droplet fluorescence, 18-24 h; for cell number change: measured here: cell count max response, cells fed with added oleic acid. A digest of the protocol:
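Drosophila S3 cells loaded with oleic acid (400 uM, as added) and compounds at several concentrations; lipid droplets imaged by 488-nm laser-scanning cytometry, 500–530 nm intensity and object ratio to cell channel. Percent activity normalized to 20 uM Triacsin C.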

The mark [1] stands for this setting: measured here: cell number channel AC50, cells fed with added oleic acid.
The mark [2] stands for this setting: measured here: lipid fluorescence (Fed channel) AC50, cells fed with added oleic acid.

As for `O=C1C=CC(=O)N1c1ccc(O)cc1`, the cell number change was -72%. Besides, the half-maximal activity concentration (AC50) under setting [1] is 16.4 µM [falling, partial curve]. Under setting [2], the AC50 was 16.4 µM [falling, partial curve]. As for `COc1ccc(NC(=O)CC2C(=O)N(C)C(=S)N2Cc2ccncc2)cc1` (stereo not drawn), the cell number change is -36.9%. Besides, under setting [1], the AC50 is 29.1 µM [falling, single point]. Regarding `O=C(Nc1cc(S(=O)(=O)N2CCCCC2)ccc1N1CCOCC1)c1ccc(F)cc1`, the half-maximal activity concentration (AC50) under setting [1] was 6.51 µM [falling, single point]. For `c1ccc(Nc2nc(NCc3ccco3)c3ccccc3n2)cc1`, the cell number change is -63.7%. In addition, the half-maximal activity concentration (AC50) under setting [1] is 16.4 µM [falling, single point]. The AC50 under setting [2] is 20.6 µM [falling, single point].

In the case of `COc1cc2oc3ccccc3c2cc1N(CC(=O)N1CCCCC1)S(=O)(=O)c1ccc(C)cc1`, the cell number change is -3.83%. Besides, under setting [2], the concentration at half-maximal activity (AC50) was 0.58 µM [falling, single point]. With `COCCN(C(=O)CSCC(=O)Nc1cccc(C)c1)c1c(N)n(Cc2ccccc2)c(=O)[nH]c1=O`, the AC50 under setting [2] is 6.51 µM [rising, single point]. On to `Cc1cc(C)n(C(=O)c2ccc([N+](=O)[O-])c(Cl)c2)n1`, for which the cell number change is -23.8%. For the same compound, under setting [2], the AC50 was 29.1 µM [falling, single point]. Take `CCCN1C2CCCC1CC(NC(=O)NC13CC4CC(CC(C4)C1)C3)C2` (stereo not drawn): the cell number change is -19.3%.

Consider `CCOc1cc(-c2nc3ccccn3c2NCC2CCCO2)ccc1O` (stereo not drawn), for which the cell number change was -77.8%. The AC50 under setting [1] is 16.4 µM [falling, partial curve]. With `Cc1ccccc1NC(=O)N1CCCN(c2ccc(C#N)cn2)CC1`, the cell number change was 22.7%. Moreover, under setting [2], the AC50 is 1.3 µM [rising, partial curve]. As to `C=CCn1c(SCC(=O)c2c(N)n(C3CC3)c(=O)[nH]c2=O)nnc1-c1ccc(OC)cc1`, the cell number change is -12.5%. For the compound `Cc1ccc(CNC(=O)c2ccc(COc3ccccc3)cc2)cc1`, the cell number change is -7.81%. In addition, under setting [2], the AC50 was 0.13 µM [rising, full curve, poor fit]. Take `CC(=O)c1ccc(NC(=O)Nc2ccc(Cl)cc2)cc1`: the cell number change is -73.6%. Under setting [1], the AC50 was 18.4 µM [falling, single point]. Moreover, under setting [2], the AC50 was 29.1 µM [falling, partial curve].

Turning to `CC(NC(=O)CCOc1ccccc1)c1ccccc1` (stereo not drawn), the cell number change is -25.7%. In addition, the AC50 under setting [2] is 29.1 µM [falling, single point]. Turning to `COc1cc(C(=O)Oc2cccc(C(=S)N3CCOCC3)c2)cc(OC)c1OC`, the cell number change was -21.8%. The AC50 under setting [2] was 32.6 µM [falling, single point]. As for `COc1ccccc1-c1nnc(SCC(=O)c2c(N)n(C3CC3)c(=O)[nH]c2=O)o1`, the cell number change was determined as 4.66%. Further, the AC50 under setting [2] was 7.31 µM [rising, full curve, poor fit]. As for `Cc1cc(/C=C2/C(=N)N3C(=NC2=O)SN=C3S(C)(=O)=O)c(C)n1-c1ccc(F)cc1`, the cell number change was 2.56%. In addition, under setting [1], the AC50 was 6.51 µM [falling, single point]. Under setting [2], the AC50 was 6.51 µM [falling, single point]. Turning to `CC(C)(C)c1ccc(OCCCNCc2ccccc2)cc1`, the cell number change was -71.2%. Also, the AC50 under setting [1] is 25.9 µM [falling, partial curve, poor fit]. Besides, the concentration at half-maximal activity (AC50) under setting [2] was 23.1 µM [falling, partial curve, poor fit].

For `CCn1c(SCC(=O)Nc2cc(C)on2)nc2c(c1=O)SC(C)C2` (stereo not drawn), the half-maximal activity concentration (AC50) under setting [2] was 29.1 µM [rising, single point]. `O=C(COc1ccccc1)N=C1SC2CS(=O)(=O)CC2N1c1ccccc1` (stereo not drawn): the cell number change was found to be 19%. Moreover, under setting [2], the AC50 was 23.1 µM [rising, partial curve].

As for `CCOC(=O)CSc1ncnc2c1cnn2-c1ccc(C)cc1C`, the cell number change was 22.7%. Besides, the AC50 under setting [2] was 5.8 µM [rising, partial curve]. Turning to `Cc1ccc(N2CC(C(=O)OCc3ccccc3F)CC2=O)cc1` (stereo not drawn), the cell number change is -31.7%. The AC50 under setting [1] is 0.259 µM [falling, full curve]. Moreover, under setting [2], the concentration at half-maximal activity (AC50) is 23.1 µM [falling, partial curve]. With `CCc1ccc(N=c2c([N+](=O)[O-])nn(-c3ccc4c(c3)OCCO4)n2O)cc1`, the cell number change is -33.6%. For the same compound, under setting [1], the AC50 is 16.4 µM [falling, partial curve, poor fit]. Besides, the concentration at half-maximal activity (AC50) under setting [2] was 3.26 µM [falling, full curve]. On to `Cc1nc2c(cnn2-c2ccccc2Cl)c(=O)n1-c1ccc(C(C)C)cc1`, for which the cell number change came out at 51.5%. Further, the concentration at half-maximal activity (AC50) under setting [1] was 29.1 µM [rising, single point]. Also, the half-maximal activity concentration (AC50) under setting [2] is 29.1 µM [falling, single point]. For the compound `CCOC(=O)c1ccc(NC(=O)CSc2nccn2C)cc1`, the cell number change stood at 27.1%. The half-maximal activity concentration (AC50) under setting [2] was 5.8 µM [rising, full curve]. For the compound `Cc1cc(N/N=C/c2cccc([N+](=O)[O-])c2)nc(-n2nc(C)cc2C)n1`, under setting [1], the concentration at half-maximal activity (AC50) is 6.51 µM [rising, single point].

With `O=C(Nc1ccc(Cl)c(Cl)c1)c1ccc2c(c1)OCO2`, the cell number change is -18%. The AC50 under setting [2] is 29.1 µM [falling, single point]. Regarding `CCCc1ccc(S(=O)(=O)NCc2nnc(SC)n2C)cc1`, the cell number change came out at 5.26%. As for `O=C(Cc1ccc(Br)cc1)N1CCN(c2ccccn2)CC1`, the cell number change was -1.77%. Under setting [2], the half-maximal activity concentration (AC50) is 6.51 µM [rising, single point]. `O=C(Nc1nnc(SCc2c(Cl)cccc2Cl)s1)C1CC(=O)N(c2ccc3c(c2)OCCO3)C1` (stereo not drawn): the cell number change was found to be 13.8%. As for `CCN(CC)S(=O)(=O)c1ccc(Cl)c(C(=O)Oc2cccnc2)c1`, the cell number change is -2.04%. The concentration at half-maximal activity (AC50) under setting [2] was 29.1 µM [falling, partial curve]. As for `CN(c1cccc(NC(=O)c2ccccc2N(C)S(=O)(=O)c2ccccc2)c1)S(C)(=O)=O`, the cell number change was -8.47%. The AC50 under setting [2] was 29.1 µM [falling, single point].

`CCOC(=O)/C(C#N)=C/c1cccc([N+](=O)[O-])c1`: the cell number change came to 15%. In addition, under setting [2], the AC50 is 29.1 µM [rising, single point]. With `CC(=O)NC(c1ccco1)c1cc(Br)c2cccnc2c1O` (stereo not drawn), under setting [2], the AC50 is 0.164 µM [falling, full curve, poor fit]. Take `COc1c(Cl)cc(Cl)cc1C(=O)Nc1ccc(CN2CCOCC2)cc1`: the cell number change is -8.77%.

For the compound `CC(C)(C)C(=O)NC1CCN(C(=O)N2CCCC2)CC1`, the cell number change was -5.19%. Take `COC(=O)c1ccccc1NC(=O)CN1C(=O)c2ccccc2S1(=O)=O`: the cell number change was -16.5%. The half-maximal activity concentration (AC50) under setting [2] is 29.1 µM [rising, single point]. On to `O=C(NC(=S)N1CCN(c2nc(-c3ccccc3)cs2)CC1)c1cccnc1`, for which the cell number change is 10.1%. As for `CCCCC(=O)c1c(O)c2ccccc2oc1=O`, the cell number change was 9.88%.
